Data taken from PMC11074315.
No constants are given. Whether binding was seen depends on the method and setting. Binding calls can cover weak binding; strength is not graded here. Sequences can lack the tags named with a protein.

Experiments:
[1] = molecular target: T1, GST-AUR1 (Arabidopsis thaliana) (UniProt Q9M077); test: pull-down; GST-AUR1 immobilised on glutathione beads, incubated with purified His-fused MAP65-3 or its truncations; 20 mM Tris-HCl pH 8.0, 150 mM NaCl, 0.2% Triton, 4 °C, 2 h; immunoblot with anti-His and anti-GST; both purified
T1 sequence: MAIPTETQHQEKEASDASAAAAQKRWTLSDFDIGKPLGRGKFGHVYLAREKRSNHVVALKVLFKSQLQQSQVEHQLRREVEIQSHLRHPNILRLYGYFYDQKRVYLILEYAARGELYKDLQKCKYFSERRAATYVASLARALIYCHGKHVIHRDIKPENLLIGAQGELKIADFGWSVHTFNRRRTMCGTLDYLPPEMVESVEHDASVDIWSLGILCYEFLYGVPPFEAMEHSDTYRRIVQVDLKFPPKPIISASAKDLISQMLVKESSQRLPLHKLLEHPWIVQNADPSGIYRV

[2] = molecular target: T2, AUR1 (alpha-Aurora kinase), yeast two-hybrid fusion (Arabidopsis thaliana) (UniProt Q9M077); test: two-hybrid; pGADT7-GW (AD) and pGBKT7-GW (BD) fusions in yeast strain AH109; growth on -L/-W/-H/-A selection media, 30 °C, 2 days
T2 sequence: T1 sequence

| Substance | binding [1] | binding [2] |
| --- | --- | --- |
| His-fused MAP65-3 N-terminal fragment (Arabidopsis thaliana) (domain or fragment) | binds |  |
| MAP65-3 C-terminal microtubule-binding region, yeast two-hybrid fusion (Arabidopsis thaliana) (domain or fragment) |  | no binding |
| MAP65-3 N-terminal dimerization fragment, yeast two-hybrid fusion (Arabidopsis thaliana) (domain or fragment) |  | binds |
